Laboratory results published in the supplement of paper PMC12823440, “Inhibitors supercharge kinase turnover through native proteolytic circuits” (Nature, 2025).
This is one part of the list. Hit calls seldom repeat between salt and free forms of one compound.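 In K562 cells expressing nanoluciferase-fused kinases, luminescence was recorded at 4 h intervals between 2 and 18 h, normalized as percent of control with DMSO at 100% and a positive control at 0%. A significant (2 sigma) signal drop marks a time point as decreased. The authors' rule for a hit is not shown and takes in more than the number of time points.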

Protein sequences, listed by entry. Tags and fused reporters are not part of them. Lines headed by an entry give the natural chain unless they say otherwise; changes in a name come on top.
UniProt P50613: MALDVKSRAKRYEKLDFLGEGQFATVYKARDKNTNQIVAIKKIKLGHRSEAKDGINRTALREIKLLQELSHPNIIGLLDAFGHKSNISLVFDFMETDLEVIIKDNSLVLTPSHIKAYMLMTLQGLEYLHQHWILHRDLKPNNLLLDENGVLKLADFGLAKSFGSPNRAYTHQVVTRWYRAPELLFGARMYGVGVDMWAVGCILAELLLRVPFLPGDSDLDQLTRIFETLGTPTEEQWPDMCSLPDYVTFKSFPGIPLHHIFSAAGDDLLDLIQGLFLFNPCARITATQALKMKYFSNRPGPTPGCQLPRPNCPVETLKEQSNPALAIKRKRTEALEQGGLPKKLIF
UniProt P50750, whole entry: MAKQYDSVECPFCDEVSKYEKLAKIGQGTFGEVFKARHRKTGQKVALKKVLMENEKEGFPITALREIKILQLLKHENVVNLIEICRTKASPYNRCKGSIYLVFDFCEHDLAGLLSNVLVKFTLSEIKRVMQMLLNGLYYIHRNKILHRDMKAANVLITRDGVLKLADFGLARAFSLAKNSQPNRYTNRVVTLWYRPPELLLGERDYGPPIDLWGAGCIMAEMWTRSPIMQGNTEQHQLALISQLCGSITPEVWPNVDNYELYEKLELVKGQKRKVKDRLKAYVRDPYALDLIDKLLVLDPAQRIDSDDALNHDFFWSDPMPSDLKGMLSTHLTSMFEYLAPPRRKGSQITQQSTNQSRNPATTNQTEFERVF
UniProt O96017, whole entry: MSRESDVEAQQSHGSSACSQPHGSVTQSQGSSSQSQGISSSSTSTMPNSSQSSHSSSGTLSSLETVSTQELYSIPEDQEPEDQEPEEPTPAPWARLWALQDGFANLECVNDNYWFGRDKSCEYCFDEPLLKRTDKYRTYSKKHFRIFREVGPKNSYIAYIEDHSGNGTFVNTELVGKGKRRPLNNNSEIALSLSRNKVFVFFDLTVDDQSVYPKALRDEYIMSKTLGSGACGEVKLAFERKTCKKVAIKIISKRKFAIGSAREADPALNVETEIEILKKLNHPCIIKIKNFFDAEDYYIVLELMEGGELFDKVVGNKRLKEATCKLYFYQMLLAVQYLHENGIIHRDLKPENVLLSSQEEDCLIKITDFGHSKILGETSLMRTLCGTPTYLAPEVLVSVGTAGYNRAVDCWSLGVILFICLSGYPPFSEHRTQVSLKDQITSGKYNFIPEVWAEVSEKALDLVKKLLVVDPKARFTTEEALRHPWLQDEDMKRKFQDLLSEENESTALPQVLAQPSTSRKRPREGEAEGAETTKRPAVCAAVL
UniProt P07333, whole entry: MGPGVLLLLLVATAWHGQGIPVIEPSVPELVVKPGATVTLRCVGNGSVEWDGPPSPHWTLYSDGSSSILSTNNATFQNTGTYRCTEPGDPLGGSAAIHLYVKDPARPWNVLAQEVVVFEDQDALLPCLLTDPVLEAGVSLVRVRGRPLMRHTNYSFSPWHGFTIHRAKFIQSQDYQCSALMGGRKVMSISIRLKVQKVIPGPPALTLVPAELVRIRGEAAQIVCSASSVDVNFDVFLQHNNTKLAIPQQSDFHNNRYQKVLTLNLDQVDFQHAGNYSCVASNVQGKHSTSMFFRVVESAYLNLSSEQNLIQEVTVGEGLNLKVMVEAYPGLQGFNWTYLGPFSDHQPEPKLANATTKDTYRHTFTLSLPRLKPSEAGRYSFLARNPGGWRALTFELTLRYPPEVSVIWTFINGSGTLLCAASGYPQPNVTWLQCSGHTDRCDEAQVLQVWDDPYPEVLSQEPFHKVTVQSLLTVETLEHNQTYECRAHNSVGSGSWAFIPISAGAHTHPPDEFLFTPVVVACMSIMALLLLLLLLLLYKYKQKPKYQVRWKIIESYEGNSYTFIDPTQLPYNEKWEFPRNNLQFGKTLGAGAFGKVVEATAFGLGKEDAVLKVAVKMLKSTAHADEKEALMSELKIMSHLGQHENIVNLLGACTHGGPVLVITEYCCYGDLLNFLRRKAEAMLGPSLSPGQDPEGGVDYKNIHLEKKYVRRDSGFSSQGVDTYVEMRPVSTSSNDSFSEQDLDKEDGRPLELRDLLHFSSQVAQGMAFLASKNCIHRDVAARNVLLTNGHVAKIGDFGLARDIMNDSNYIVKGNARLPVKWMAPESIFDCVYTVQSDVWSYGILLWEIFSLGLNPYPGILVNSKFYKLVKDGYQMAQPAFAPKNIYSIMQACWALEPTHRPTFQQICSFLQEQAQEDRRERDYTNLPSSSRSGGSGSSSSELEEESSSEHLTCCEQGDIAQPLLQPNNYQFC
UniProt P41240: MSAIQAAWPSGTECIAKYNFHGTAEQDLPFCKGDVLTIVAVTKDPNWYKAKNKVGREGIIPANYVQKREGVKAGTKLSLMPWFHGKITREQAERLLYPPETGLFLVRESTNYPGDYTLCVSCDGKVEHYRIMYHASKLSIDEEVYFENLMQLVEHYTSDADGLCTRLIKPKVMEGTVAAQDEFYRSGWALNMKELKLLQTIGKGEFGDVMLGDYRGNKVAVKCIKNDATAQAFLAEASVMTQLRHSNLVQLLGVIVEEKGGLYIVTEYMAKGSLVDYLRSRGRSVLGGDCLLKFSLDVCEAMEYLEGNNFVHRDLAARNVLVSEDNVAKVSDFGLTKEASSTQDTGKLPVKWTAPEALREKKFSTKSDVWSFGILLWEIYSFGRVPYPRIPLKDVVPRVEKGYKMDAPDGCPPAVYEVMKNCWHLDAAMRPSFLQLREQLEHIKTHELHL
UniProt P48729: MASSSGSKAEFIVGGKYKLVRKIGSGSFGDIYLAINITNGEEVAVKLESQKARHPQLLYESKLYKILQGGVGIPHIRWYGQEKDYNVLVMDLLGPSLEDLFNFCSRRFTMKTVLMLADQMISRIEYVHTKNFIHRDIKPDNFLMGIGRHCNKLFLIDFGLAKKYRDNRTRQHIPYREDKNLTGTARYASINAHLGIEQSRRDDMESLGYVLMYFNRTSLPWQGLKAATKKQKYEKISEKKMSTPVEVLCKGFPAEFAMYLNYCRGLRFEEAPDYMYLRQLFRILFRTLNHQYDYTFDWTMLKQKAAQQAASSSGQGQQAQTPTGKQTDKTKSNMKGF
UniProt P48730: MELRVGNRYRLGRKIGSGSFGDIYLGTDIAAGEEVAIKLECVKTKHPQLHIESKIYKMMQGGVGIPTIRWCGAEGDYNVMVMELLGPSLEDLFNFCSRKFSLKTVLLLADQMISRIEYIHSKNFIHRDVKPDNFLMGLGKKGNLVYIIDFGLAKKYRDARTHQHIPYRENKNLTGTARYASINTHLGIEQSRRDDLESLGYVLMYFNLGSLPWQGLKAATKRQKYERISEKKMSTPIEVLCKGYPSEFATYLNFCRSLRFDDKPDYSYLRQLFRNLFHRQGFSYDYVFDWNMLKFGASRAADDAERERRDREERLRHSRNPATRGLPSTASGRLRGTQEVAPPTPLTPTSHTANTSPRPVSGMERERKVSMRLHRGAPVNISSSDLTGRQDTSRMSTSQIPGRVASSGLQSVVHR
UniProt Q9Y463, whole entry, looked up: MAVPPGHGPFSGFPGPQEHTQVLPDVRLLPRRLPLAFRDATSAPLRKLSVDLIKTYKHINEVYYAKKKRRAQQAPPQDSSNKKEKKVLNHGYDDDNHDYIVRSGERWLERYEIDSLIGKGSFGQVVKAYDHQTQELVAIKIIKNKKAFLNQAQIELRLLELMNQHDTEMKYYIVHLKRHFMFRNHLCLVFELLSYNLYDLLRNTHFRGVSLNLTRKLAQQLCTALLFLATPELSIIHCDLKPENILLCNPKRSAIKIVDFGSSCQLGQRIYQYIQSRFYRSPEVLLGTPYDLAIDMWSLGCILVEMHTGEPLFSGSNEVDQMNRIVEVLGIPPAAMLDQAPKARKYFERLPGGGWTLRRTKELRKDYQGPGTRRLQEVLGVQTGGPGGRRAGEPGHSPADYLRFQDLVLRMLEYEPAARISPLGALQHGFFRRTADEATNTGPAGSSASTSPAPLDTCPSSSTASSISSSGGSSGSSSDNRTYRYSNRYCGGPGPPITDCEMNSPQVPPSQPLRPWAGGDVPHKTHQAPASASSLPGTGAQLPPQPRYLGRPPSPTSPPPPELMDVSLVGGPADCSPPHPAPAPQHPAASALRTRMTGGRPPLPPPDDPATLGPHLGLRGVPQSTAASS
UniProt Q92630: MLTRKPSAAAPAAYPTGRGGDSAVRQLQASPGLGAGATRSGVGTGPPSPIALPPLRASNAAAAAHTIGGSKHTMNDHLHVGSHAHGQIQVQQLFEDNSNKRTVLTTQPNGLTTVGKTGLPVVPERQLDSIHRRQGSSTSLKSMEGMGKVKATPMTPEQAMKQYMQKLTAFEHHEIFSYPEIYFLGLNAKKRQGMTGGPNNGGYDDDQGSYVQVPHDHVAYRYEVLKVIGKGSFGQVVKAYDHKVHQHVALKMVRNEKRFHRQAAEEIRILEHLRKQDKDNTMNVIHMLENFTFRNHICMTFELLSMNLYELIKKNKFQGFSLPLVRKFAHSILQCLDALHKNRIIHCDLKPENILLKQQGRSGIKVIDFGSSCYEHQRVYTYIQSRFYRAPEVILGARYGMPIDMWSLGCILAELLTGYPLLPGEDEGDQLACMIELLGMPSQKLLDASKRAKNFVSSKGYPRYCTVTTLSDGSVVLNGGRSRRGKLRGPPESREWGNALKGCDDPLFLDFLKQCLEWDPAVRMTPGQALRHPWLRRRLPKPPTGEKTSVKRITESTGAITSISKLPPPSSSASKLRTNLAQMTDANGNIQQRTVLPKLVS
UniProt P21860, whole entry: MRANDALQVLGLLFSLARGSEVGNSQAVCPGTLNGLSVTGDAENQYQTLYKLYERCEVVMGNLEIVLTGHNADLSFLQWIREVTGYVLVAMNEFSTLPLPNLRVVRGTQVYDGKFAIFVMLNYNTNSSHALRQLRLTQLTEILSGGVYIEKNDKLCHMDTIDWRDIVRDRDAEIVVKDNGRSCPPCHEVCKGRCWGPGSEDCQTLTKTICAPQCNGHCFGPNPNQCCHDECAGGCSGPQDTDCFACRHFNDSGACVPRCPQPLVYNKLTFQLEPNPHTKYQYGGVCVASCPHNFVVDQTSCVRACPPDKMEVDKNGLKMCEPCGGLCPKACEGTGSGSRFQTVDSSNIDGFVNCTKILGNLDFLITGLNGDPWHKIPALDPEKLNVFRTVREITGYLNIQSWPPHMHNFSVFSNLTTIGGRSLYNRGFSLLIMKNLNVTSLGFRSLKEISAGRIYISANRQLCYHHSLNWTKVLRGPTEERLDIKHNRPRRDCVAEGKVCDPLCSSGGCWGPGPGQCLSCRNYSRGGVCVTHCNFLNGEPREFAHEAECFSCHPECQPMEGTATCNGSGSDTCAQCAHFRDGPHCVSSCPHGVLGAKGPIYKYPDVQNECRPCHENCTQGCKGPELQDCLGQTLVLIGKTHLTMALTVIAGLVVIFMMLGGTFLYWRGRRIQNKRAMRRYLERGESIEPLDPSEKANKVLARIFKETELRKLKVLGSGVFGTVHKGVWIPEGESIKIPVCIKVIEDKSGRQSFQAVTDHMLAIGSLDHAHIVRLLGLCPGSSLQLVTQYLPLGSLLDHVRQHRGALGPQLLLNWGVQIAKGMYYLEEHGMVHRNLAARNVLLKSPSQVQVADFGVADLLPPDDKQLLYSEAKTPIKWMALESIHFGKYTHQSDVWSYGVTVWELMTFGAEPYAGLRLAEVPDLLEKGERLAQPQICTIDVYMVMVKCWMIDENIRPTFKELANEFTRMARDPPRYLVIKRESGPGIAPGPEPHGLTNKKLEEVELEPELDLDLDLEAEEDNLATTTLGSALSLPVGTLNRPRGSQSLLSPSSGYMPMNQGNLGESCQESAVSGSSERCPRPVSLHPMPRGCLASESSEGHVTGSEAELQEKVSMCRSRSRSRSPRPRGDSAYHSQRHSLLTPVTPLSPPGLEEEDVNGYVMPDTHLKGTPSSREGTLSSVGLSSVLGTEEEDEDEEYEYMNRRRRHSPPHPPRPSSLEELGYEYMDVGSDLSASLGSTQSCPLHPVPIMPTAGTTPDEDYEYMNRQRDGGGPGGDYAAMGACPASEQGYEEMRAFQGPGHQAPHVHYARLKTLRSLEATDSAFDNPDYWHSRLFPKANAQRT

Legend:
Experiment in all cases: kinase-Nluc reporter destabilization hit call (1 = scored as downregulated) (binary); higher = compound decreases kinase abundance
Conditions in all cases: K562; 2-18 h
CDK7 = CDK7 (UniProt P50613)
CDK9 = CDK9 (UniProt P50750)
CHEK2 = CHEK2 (UniProt O96017)
CSF1R = CSF1R (UniProt P07333)
CSK = CSK (UniProt P41240)
CSNK1A1 = CSNK1A1 (UniProt P48729)
CSNK1D = CSNK1D (UniProt P48730)
DDR1 = DDR1 (UniProt Q08345)
DYRK1B = DYRK1B (UniProt Q9Y463)
DYRK2 = DYRK2 (UniProt Q92630)
EGFR = EGFR (UniProt P00533)
EGFR_G719S = EGFR_G719S (UniProt P00533)
EGFR_G719S_T790M = EGFR_G719S_T790M (UniProt P00533)
EGFR_L718V = EGFR_L718V (UniProt P00533)
EGFR_L858R = EGFR_L858R (UniProt P00533)
EGFR_L861Q = EGFR_L861Q (UniProt P00533)
EGFR_T790M = EGFR_T790M (UniProt P00533)
EPHA2 = EPHA2 (UniProt P29317)
ERBB3 = ERBB3 (UniProt P21860)
[1] = biological target: ERBB4_R711C (clone: ERBB4_mut) (UniProt Q15303)

Measured: kinase-Nluc reporter destabilization hit call

O=Nc1c(-c2c(O)[nH]c3cc(Br)ccc23)[nH]c2ccccc12 [GSK 3 Inhibitor IX] (2.5 µM)
inactive: CDK7 = 0 | CDK9 = 0 | CHEK2 = 0 | CSF1R 0 | CSK 0 | CSNK1A1 = 0 | CSNK1D 0 | DDR1 = 0 | DYRK1B 0 | DYRK2 = 0 | EGFR 0 | EGFR_G719S 0 | EGFR_G719S_T790M 0 | EGFR_L718V 0 | EGFR_L858R 0 | EGFR_L861Q 0 | EGFR_T790M 0 | EPHA2 = 0 | ERBB3 = 0 | [1] 0

C=CC(=O)Nc1cc(Nc2nccc(-c3cn(C)c4ccccc34)n2)c(OC)cc1OCCN(C)C [Rezivertinib] (2.5 µM)
inactive: CDK7 = 0 | CDK9 = 0 | CHEK2 = 0 | CSF1R 0 | CSK 0 | CSNK1A1 = 0 | CSNK1D 0 | DDR1 = 0 | DYRK1B 0 | DYRK2 = 0 | EGFR 0 | EGFR_G719S 0 | EGFR_G719S_T790M 0 | EGFR_L718V 0 | EGFR_L858R 0 | EGFR_L861Q 0 | EGFR_T790M 0 | EPHA2 = 0 | ERBB3 = 0 | [1] 0

Cn1c(=O)c2c(nc(S(C)(=O)=O)n2C)n(CC#Cc2cccc(O)c2)c1=O (2.5 µM)
inactive: CDK7 = 0 | CDK9 = 0 | CHEK2 = 0 | CSF1R 0 | CSK 0 | CSNK1A1 = 0 | CSNK1D 0 | DDR1 = 0 | DYRK1B 0 | DYRK2 = 0 | EGFR 0 | EGFR_G719S 0 | EGFR_G719S_T790M 0 | EGFR_L718V 0 | EGFR_L858R 0 | EGFR_L861Q 0 | EGFR_T790M 0 | EPHA2 = 0 | ERBB3 = 0 | [1] 0

CCN1CCN(Cc2cnc(Nc3cc(-c4cc(F)c5nc(C)n(C(C)C)c5c4)c(F)cn3)nc2)CC1 (10 µM)
inactive: CDK7 = 0 | CDK9 = 0 | CHEK2 = 0 | CSF1R 0 | CSK 0 | CSNK1A1 = 0 | CSNK1D 0 | DDR1 = 0 | DYRK1B 0 | DYRK2 = 0 | EGFR 0 | EGFR_G719S 0 | EGFR_G719S_T790M 0 | EGFR_L718V 0 | EGFR_L858R 0 | EGFR_L861Q 0 | EGFR_T790M 0 | EPHA2 = 0 | ERBB3 = 0 | [1] 0

NS(=O)(=O)c1ccc(Nc2nc(-c3cccc(-c4ccccc4)c3)c3[nH]cnc3n2)cc1 (10 µM)
inactive: CDK7 = 0 | CDK9 = 0 | CHEK2 = 0 | CSF1R 0 | CSK 0 | CSNK1A1 = 0 | CSNK1D 0 | DDR1 = 0 | DYRK1B 0 | DYRK2 = 0 | EGFR 0 | EGFR_G719S 0 | EGFR_G719S_T790M 0 | EGFR_L718V 0 | EGFR_L858R 0 | EGFR_L861Q 0 | EGFR_T790M 0 | EPHA2 = 0 | ERBB3 = 0 | [1] 0

NC(=O)c1cnc(-c2ccc(C3(N)CCC3)cc2)c(-c2ccccc2)c1 (10 µM)
inactive: CDK7 = 0 | CDK9 = 0 | CHEK2 = 0 | CSF1R 0 | CSK 0 | CSNK1A1 = 0 | CSNK1D 0 | DDR1 = 0 | DYRK1B 0 | DYRK2 = 0 | EGFR 0 | EGFR_G719S 0 | EGFR_G719S_T790M 0 | EGFR_L718V 0 | EGFR_L858R 0 | EGFR_L861Q 0 | EGFR_T790M 0 | EPHA2 = 0 | ERBB3 = 0 | [1] 0

Cc1cc(C(=O)NOCCO)c(Nc2ccc(I)cc2F)n(C)c1=O (10 µM)
inactive: CDK7 = 0 | CDK9 = 0 | CHEK2 = 0 | CSF1R 0 | CSK 0 | CSNK1A1 = 0 | CSNK1D 0 | DDR1 = 0 | DYRK1B 0 | DYRK2 = 0 | EGFR 0 | EGFR_G719S 0 | EGFR_G719S_T790M 0 | EGFR_L718V 0 | EGFR_L858R 0 | EGFR_L861Q 0 | EGFR_T790M 0 | EPHA2 = 0 | ERBB3 = 0 | [1] 0

CC(Cc1ccc(O)c(O)c1)C(C)Cc1ccc(O)c(O)c1 (stereo not given) [Nordihydroguaiaretic acid] (2.5 µM)
inactive: CDK7 = 0 | CDK9 = 0 | CHEK2 = 0 | CSF1R 0 | CSK 0 | CSNK1A1 = 0 | CSNK1D 0 | DDR1 = 0 | DYRK1B 0 | DYRK2 = 0 | EGFR 0 | EGFR_G719S 0 | EGFR_G719S_T790M 0 | EGFR_L718V 0 | EGFR_L858R 0 | EGFR_L861Q 0 | EGFR_T790M 0 | EPHA2 = 0 | ERBB3 = 0 | [1] 0

CNC(=O)c1ccc2c(C(=Nc3cccc(CN(C)C)c3)c3ccccc3)c(O)[nH]c2c1 [MEK inhibitor] (10 µM)
inactive: CDK7 = 0 | CDK9 = 0 | CHEK2 = 0 | CSF1R 0 | CSK 0 | CSNK1A1 = 0 | CSNK1D 0 | DDR1 = 0 | DYRK1B 0 | DYRK2 = 0 | EGFR 0 | EGFR_G719S 0 | EGFR_G719S_T790M 0 | EGFR_L718V 0 | EGFR_L858R 0 | EGFR_L861Q 0 | EGFR_T790M 0 | EPHA2 = 0 | ERBB3 = 0 | [1] 0

Entries from the list above that contain fluorine (two):
CCN1CCN(Cc2cnc(Nc3cc(-c4cc(F)c5nc(C)n(C(C)C)c5c4)c(F)cn3)nc2)CC1 (10 µM)
inactive: CDK7 = 0 | CDK9 = 0 | CHEK2 = 0 | CSF1R 0 | CSK 0 | CSNK1A1 = 0 | CSNK1D 0 | DDR1 = 0 | DYRK1B 0 | DYRK2 = 0 | EGFR 0 | EGFR_G719S 0 | EGFR_G719S_T790M 0 | EGFR_L718V 0 | EGFR_L858R 0 | EGFR_L861Q 0 | EGFR_T790M 0 | EPHA2 = 0 | ERBB3 = 0 | [1] 0

Cc1cc(C(=O)NOCCO)c(Nc2ccc(I)cc2F)n(C)c1=O (10 µM)
inactive: CDK7 = 0 | CDK9 = 0 | CHEK2 = 0 | CSF1R 0 | CSK 0 | CSNK1A1 = 0 | CSNK1D 0 | DDR1 = 0 | DYRK1B 0 | DYRK2 = 0 | EGFR 0 | EGFR_G719S 0 | EGFR_G719S_T790M 0 | EGFR_L718V 0 | EGFR_L858R 0 | EGFR_L861Q 0 | EGFR_T790M 0 | EPHA2 = 0 | ERBB3 = 0 | [1] 0

Further compounds

COC(=O)/C=C/c1ccccc1 [Methyl cinnamate] (10 µM)
inactive: CDK7 = 0 | CDK9 = 0 | CHEK2 = 0 | CSF1R 0 | CSK 0 | CSNK1A1 = 0 | CSNK1D 0 | DDR1 = 0 | DYRK1B 0 | DYRK2 = 0 | EGFR 0 | EGFR_G719S 0 | EGFR_G719S_T790M 0 | EGFR_L718V 0 | EGFR_L858R 0 | EGFR_L861Q 0 | EGFR_T790M 0 | EPHA2 = 0 | ERBB3 = 0 | [1] 0

CCN(CC)CCCC(C)Nc1nc(C)cc(Nc2ccc3nc(C)cc(N)c3c2)n1 (stereo not given) (10 µM)
inactive: CDK7 = 0 | CDK9 = 0 | CHEK2 = 0 | CSF1R 0 | CSK 0 | CSNK1A1 = 0 | CSNK1D 0 | DDR1 = 0 | DYRK1B 0 | DYRK2 = 0 | EGFR 0 | EGFR_G719S 0 | EGFR_G719S_T790M 0 | EGFR_L718V 0 | EGFR_L858R 0 | EGFR_L861Q 0 | EGFR_T790M 0 | EPHA2 = 0 | ERBB3 = 0 | [1] 0

CC(C)Oc1ccc(F)c(-c2cnc(N)c(C(=O)Nc3cnccc3N3CCC[C@@H](C(=O)O)C3)n2)c1 (2 µM)
inactive: CDK7 = 0 | CDK9 = 0 | CHEK2 = 0 | CSF1R 0 | CSK 0 | CSNK1A1 = 0 | CSNK1D 0 | DDR1 = 0 | DYRK1B 0 | DYRK2 = 0 | EGFR 0 | EGFR_G719S 0 | EGFR_G719S_T790M 0 | EGFR_L718V 0 | EGFR_L858R 0 | EGFR_L861Q 0 | EGFR_T790M 0 | EPHA2 = 0 | ERBB3 = 0 | [1] 0

Cc1cnc(NC(=O)c2cc(Oc3cnc(C(=O)N(C)C)nc3)c3cc(C)oc3c2)cn1 (10 µM)
inactive: CDK7 = 0 | CDK9 = 0 | CHEK2 = 0 | CSF1R 0 | CSK 0 | CSNK1A1 = 0 | CSNK1D 0 | DDR1 = 0 | DYRK1B 0 | DYRK2 = 0 | EGFR 0 | EGFR_G719S 0 | EGFR_G719S_T790M 0 | EGFR_L718V 0 | EGFR_L858R 0 | EGFR_L861Q 0 | EGFR_T790M 0 | EPHA2 = 0 | ERBB3 = 0 | [1] 0

Nc1ncc(C(=O)NC2CN(C(=O)C3CC3)C2)c2ccc(-c3cccc(F)c3)nc12 (2 µM)
inactive: CDK7 = 0 | CDK9 = 0 | CHEK2 = 0 | CSF1R 0 | CSK 0 | CSNK1A1 = 0 | CSNK1D 0 | DDR1 = 0 | DYRK1B 0 | DYRK2 = 0 | EGFR 0 | EGFR_G719S 0 | EGFR_G719S_T790M 0 | EGFR_L718V 0 | EGFR_L858R 0 | EGFR_L861Q 0 | EGFR_T790M 0 | EPHA2 = 0 | ERBB3 = 0 | [1] 0

Cc1nn(C)cc1-c1nc2c(N3CCN(Cc4ccc(Cl)cc4)CC3)c(Cl)cnc2[nH]1 (10 µM)
inactive: CDK7 = 0 | CDK9 = 0 | CHEK2 = 0 | CSF1R 0 | CSK 0 | CSNK1A1 = 0 | CSNK1D 0 | DDR1 = 0 | DYRK1B 0 | DYRK2 = 0 | EGFR 0 | EGFR_G719S 0 | EGFR_G719S_T790M 0 | EGFR_L718V 0 | EGFR_L858R 0 | EGFR_L861Q 0 | EGFR_T790M 0 | EPHA2 = 0 | ERBB3 = 0 | [1] 0

Cc1cc(Nc2cc(N)ncn2)c(=O)n2c1C(=O)NC21CCCCC1 [Tomivosertib] (10 µM)
inactive: CDK7 = 0 | CDK9 = 0 | CHEK2 = 0 | CSF1R 0 | CSK 0 | CSNK1A1 = 0 | CSNK1D 0 | DDR1 = 0 | DYRK1B 0 | DYRK2 = 0 | EGFR 0 | EGFR_G719S 0 | EGFR_G719S_T790M 0 | EGFR_L718V 0 | EGFR_L858R 0 | EGFR_L861Q 0 | EGFR_T790M 0 | EPHA2 = 0 | ERBB3 = 0 | [1] 0
